Experimental data reported in patent publication US20260192003A1, “CHELATING COMPOUNDS AND METHODS OF USES THEREOF” (THE REGENTS OF THE UNIVERSITY OF CALIFORNIA, priority 2023, published 2026).

Assay: Concentration-dependent radiolabeling with [^227Th]Th^4+ (iTLC)
Conditions: for ligand concentration at which ^227Th is bound (as low as): within 30 min, room temperature, pH 5

Compound: O=C(O)CN1CCN(CC(=O)O)CCN(CC(=O)O)CCN(CC(=O)O)CC1 [DOTA, 1,4,7,10-tetraazacyclododecane-N,N′,N″,N″-1,4,7,10-tetraacetic acid, reference compound]
- incorporation of [^227Th]Th^4+ (highest tested concentration of 10^−4 M): partial incorporation

Compound: O=C(c1cccc(=O)n1O)N1CCN(C(=O)c2cccc(=O)n2O)CCN(C(=O)c2cccc(=O)n2O)CCN(C(=O)c2cccc(=O)n2O)CC1 [DOTHOPO]
- ligand concentration at which ^227Th is bound (as low as): 10^−6 M

Compound: O=c1cccc(CN2CCN(Cc3cccc(=O)n3O)CCN(Cc3cccc(=O)n3O)CCN(Cc3cccc(=O)n3O)CC2)n1O [MeDOTHOPO, 1,4,7,10-tetraazacyclododecane-1,4,7,10-tetra(methylene)tetrakis(1-hydroxy-2-pyridinone)]
- ligand concentration at which ^227Th is bound (as low as): 10^−6 M
